Assay results: patent publication US9924723B2 (THE REGENTS OF THE UNIVERSITY OF COLORADO, A BODY CORPORATE, priority 2013, dated 2018)
Some of these results come from one statement about several compounds together. At least one structure is not confirmed: it was looked up by name or label, or the drawing left a doubt.

Experiment: Cadmium and chromium in corrosion product and pore water of treated field specimens (ICP-MS), pore water pH
Type: physicochemical
Conditions: end of the experiment at 126 days
Procedure: Metal concentrations measured by inductively coupled plasma mass spectrometry (ICP-MS) of acid extracted samples.
Cadmium and chromium were measured in dry sieved corrosion products for the treated samples in Experiment B, and are presented both as ng/g dry sieved fines as well as μM in pore water (FIG. 9). These metals are typically present in Portland Cement at average concentrations of 0.34 ng/g Cd and 76 ng/g Cr. […] Aside from one chromium outlier at 71 days, metal concentrations in the dry fine material after 50 days stayed relatively constant between 400 and 800 ng/g.
Metal concentrations—micromolar levels of both cadmium and chomium—in pore water are also shown; these levels represent the concentrations which drive metal diffusion into bacterial cells on the corrosion front. Pore water concentrations increased to several μM after 70 days, and subsequently receded to less than 0.2 μM by the end of the experiment at 126 days (FIG. 9). This decrease is in pore water concentrations is due to a marked increase in surface moisture as the experiment progressed (up to 23% moisture), which diluted the released metal ions.

## [Cd] [cadmium]
  Metal concentration in pore water: less than 0.2 μM
